Experimental data: article PMC4219826
Results are given in words; binding and its absence hold for the method and conditions named. In cells and extracts the contact can be indirect. Some entries that bind do so weakly or less than the wild type.

Chains of the proteins cited; added tags and fusions are not shown.
UniProt Q833J1: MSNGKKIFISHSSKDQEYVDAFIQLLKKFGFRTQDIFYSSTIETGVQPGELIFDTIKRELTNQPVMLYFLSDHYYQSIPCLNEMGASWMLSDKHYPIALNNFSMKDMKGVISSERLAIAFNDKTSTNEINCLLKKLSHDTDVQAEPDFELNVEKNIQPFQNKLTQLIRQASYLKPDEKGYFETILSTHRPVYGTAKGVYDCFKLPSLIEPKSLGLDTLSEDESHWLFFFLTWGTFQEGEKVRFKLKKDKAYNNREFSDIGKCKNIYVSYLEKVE
UniProt P22366: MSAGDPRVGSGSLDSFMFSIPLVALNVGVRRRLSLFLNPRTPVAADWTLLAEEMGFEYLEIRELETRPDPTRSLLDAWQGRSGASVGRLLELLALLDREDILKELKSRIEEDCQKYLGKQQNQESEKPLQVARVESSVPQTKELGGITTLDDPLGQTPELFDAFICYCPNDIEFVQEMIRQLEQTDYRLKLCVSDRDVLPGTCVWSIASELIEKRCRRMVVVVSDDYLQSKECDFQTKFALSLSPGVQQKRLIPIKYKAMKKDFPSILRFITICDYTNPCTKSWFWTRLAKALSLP

Target: MBP-TcpF fusion protein (TIR domain-containing protein in E. faecalis, TcpF) (Enterococcus faecalis (strain E99)) (UniProt Q833J1)
Assay: co-IP; purified recombinant MBP, MBP-TcpF or MBP-TcpFm mixed with 1 mg RAW264.7 cell lysate overnight at 4°C; precleared with protein A Sepharose; precipitated with anti-MBP antibody and protein A Sepharose for 4 hours; beads washed three times in lysate buffer; immunoblot with MyD88-specific antibody; only the target purified

MyD88 (from UniProt P22366 1-296)
binding: binds
